Patent US20240092884A1

Molecular target: ANGPTL3-FLD-biotin (human)
Assay: competitive ELISA: integrin αvβ3 coated at 1 µg/mL, antibody titrated in 0.16 µg/mL ANGPTL3-FLD-biotin; blocked partner: integrin αvβ3; OD450

B1: anti-ANGPTL3 monoclonal antibody (prepared in Example 2) (antibody, IgG1, V domains shown)
VH: QVQLKESGPGLVAPSQSLSITCTVSGFSLTTYGVSWVRQPPGKGLEWLGVIWGDGNTNYHSALISRLSISKDNSKSQVFLKLNSLQTDDTATYYCAKGGPYGNYVPFDYWGQGTTLTVSS
VL: DIVLTQSPASLAVSLGQRATISCRASESVDSYGNSFMHWYQQKPGQPPKLLIYRASNLESGIPARFSGSGSRTDFTLTINPVEADDVATYYCQQSDEEPPTFGGGTNLEIK
Q: With B1 as the binder, how does the binding read?
A: The binding was “binds”.

Results are given in words; binding and its absence hold for the method and conditions named. Binding calls can cover weak binding; strength is not graded here.
